Measured values taken from the supplement of paper PMC10849652.
The other results are listed elsewhere or left out.

The chains behind the UniProt entries cited, without tags or fusion partners. Where a name states a change or a piece, a line headed by the entry shows the natural chain unless it says otherwise.
UniProt Q8N6N7: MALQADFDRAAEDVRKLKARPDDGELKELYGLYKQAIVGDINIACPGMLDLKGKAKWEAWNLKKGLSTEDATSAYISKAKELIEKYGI
UniProt Q96IU4: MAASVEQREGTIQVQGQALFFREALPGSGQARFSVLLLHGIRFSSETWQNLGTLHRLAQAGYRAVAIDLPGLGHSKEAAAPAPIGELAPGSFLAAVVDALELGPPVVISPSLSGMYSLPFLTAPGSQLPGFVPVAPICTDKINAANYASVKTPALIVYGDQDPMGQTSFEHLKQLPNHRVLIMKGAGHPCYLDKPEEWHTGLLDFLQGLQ
UniProt P08183, whole entry, looked up: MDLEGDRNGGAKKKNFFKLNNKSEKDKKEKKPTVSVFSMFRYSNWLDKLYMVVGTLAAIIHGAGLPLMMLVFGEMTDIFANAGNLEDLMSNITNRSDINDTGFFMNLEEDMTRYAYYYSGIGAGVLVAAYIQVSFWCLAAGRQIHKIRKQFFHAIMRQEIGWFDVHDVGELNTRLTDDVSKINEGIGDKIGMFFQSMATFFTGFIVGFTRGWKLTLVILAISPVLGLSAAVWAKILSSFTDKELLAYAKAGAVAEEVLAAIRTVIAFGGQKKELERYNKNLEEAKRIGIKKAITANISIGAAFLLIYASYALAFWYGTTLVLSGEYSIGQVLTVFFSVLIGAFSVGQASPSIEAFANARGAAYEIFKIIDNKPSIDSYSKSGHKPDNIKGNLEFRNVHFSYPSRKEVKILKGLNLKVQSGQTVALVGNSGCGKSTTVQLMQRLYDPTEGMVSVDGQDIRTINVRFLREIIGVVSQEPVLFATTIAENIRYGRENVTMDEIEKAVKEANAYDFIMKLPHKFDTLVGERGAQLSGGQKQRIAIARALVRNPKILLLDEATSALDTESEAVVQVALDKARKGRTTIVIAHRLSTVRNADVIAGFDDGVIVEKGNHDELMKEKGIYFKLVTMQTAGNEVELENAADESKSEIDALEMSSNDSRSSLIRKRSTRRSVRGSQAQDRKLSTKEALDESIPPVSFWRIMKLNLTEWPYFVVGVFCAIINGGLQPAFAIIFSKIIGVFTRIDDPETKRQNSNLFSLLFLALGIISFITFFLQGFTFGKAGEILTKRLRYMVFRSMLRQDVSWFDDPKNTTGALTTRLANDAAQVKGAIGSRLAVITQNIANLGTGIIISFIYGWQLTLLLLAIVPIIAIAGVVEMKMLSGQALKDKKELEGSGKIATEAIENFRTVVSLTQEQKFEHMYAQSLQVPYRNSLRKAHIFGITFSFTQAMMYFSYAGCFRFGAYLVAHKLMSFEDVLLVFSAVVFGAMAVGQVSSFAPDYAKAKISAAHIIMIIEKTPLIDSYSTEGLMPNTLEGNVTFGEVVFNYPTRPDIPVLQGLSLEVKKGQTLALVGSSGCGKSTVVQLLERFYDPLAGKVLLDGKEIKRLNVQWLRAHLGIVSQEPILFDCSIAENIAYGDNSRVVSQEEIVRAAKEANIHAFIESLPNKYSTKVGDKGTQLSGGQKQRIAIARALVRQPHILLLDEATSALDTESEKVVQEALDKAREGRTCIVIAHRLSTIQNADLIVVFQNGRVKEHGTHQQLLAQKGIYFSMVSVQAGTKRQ
UniProt O14678: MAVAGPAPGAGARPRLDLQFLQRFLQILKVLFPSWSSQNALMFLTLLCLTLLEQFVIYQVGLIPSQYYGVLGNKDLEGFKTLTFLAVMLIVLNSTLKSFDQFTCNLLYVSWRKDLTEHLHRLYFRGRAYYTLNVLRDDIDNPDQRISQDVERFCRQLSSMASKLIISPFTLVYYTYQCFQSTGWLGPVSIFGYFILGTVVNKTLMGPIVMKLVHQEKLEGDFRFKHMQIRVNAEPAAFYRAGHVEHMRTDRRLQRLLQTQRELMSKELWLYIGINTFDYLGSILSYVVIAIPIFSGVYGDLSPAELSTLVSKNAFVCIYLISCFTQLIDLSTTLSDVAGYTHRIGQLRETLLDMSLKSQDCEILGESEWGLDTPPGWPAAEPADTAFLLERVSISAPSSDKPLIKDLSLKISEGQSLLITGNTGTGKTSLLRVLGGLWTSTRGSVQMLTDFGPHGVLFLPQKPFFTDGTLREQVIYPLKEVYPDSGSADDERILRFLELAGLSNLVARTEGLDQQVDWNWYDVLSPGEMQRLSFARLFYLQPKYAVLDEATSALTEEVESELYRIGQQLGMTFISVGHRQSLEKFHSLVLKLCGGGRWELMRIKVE
UniProt P00519, whole entry, looked up: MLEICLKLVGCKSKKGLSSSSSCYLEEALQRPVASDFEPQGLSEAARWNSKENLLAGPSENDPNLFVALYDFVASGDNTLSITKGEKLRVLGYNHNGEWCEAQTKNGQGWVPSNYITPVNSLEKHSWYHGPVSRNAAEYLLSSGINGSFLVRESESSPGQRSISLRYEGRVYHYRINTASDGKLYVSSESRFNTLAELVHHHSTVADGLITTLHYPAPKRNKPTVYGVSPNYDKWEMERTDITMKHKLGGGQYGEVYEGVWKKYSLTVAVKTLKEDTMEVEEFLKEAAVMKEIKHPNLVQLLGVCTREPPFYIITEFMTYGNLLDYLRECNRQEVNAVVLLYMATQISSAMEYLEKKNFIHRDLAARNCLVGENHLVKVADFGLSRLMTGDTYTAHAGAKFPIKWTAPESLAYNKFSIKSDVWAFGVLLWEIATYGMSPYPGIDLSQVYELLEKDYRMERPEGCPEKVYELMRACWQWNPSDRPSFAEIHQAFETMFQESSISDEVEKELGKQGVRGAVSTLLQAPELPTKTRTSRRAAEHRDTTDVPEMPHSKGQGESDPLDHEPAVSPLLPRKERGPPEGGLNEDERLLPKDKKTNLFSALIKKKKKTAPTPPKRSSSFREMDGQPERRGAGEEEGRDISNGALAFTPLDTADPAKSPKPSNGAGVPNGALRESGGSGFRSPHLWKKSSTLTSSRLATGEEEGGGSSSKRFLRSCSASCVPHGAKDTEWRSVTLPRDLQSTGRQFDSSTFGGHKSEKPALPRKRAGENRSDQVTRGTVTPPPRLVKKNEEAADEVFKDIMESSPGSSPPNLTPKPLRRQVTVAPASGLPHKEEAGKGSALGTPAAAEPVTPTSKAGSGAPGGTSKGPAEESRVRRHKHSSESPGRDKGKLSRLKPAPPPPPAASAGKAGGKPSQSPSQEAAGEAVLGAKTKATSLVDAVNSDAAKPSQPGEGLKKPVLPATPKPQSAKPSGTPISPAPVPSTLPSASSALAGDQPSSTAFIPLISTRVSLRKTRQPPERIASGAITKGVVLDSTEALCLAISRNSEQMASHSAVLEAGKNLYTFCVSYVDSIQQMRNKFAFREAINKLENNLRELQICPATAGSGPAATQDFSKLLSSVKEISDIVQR
UniProt Q9NUT2: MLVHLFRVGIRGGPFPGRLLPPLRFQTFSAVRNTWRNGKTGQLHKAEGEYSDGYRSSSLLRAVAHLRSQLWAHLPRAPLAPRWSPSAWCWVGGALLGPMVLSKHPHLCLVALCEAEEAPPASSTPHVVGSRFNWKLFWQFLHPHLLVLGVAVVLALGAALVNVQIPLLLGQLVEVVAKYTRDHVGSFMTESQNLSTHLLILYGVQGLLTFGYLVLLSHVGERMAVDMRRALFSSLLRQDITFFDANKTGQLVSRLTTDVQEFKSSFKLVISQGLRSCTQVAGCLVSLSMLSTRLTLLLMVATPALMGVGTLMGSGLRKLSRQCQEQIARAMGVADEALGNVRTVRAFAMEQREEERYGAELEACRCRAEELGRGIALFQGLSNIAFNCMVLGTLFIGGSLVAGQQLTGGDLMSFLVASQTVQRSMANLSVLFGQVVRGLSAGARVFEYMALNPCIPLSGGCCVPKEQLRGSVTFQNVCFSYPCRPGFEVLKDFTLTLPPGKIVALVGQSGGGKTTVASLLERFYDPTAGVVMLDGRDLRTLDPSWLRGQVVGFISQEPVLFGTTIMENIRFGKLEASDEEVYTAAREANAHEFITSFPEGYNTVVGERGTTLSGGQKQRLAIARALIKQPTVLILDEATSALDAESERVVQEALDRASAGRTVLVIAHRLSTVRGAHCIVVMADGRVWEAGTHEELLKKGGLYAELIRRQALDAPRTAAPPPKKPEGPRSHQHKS
UniProt Q96EY9: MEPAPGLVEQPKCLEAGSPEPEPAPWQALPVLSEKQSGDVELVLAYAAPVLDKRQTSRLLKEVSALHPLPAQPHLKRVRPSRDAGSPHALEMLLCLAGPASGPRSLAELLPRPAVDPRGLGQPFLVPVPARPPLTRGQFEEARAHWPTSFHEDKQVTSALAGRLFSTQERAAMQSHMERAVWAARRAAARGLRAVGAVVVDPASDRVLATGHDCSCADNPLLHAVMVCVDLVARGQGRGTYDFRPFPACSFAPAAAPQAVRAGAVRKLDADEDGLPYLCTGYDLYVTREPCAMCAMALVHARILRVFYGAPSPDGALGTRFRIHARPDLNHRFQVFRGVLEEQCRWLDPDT
UniProt O75027: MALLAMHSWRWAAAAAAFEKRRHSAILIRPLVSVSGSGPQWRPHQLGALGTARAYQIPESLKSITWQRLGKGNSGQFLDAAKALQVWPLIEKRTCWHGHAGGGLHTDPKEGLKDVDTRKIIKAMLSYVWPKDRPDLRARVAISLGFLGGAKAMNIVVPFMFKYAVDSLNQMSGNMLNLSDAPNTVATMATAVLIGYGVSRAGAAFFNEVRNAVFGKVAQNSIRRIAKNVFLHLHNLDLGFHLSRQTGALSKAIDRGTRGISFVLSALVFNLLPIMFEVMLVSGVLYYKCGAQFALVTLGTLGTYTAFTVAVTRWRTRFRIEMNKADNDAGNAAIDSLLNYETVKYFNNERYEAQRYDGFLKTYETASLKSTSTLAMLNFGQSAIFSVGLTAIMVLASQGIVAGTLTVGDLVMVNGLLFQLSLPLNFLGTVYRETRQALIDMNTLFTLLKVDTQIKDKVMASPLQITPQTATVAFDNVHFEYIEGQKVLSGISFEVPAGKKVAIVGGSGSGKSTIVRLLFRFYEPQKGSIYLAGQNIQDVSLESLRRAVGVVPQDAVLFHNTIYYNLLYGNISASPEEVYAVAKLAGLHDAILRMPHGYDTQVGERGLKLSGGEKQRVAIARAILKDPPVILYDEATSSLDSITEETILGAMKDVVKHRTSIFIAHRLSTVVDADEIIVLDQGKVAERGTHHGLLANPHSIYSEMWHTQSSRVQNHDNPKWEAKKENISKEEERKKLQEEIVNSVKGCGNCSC
UniProt P21439, whole entry, looked up: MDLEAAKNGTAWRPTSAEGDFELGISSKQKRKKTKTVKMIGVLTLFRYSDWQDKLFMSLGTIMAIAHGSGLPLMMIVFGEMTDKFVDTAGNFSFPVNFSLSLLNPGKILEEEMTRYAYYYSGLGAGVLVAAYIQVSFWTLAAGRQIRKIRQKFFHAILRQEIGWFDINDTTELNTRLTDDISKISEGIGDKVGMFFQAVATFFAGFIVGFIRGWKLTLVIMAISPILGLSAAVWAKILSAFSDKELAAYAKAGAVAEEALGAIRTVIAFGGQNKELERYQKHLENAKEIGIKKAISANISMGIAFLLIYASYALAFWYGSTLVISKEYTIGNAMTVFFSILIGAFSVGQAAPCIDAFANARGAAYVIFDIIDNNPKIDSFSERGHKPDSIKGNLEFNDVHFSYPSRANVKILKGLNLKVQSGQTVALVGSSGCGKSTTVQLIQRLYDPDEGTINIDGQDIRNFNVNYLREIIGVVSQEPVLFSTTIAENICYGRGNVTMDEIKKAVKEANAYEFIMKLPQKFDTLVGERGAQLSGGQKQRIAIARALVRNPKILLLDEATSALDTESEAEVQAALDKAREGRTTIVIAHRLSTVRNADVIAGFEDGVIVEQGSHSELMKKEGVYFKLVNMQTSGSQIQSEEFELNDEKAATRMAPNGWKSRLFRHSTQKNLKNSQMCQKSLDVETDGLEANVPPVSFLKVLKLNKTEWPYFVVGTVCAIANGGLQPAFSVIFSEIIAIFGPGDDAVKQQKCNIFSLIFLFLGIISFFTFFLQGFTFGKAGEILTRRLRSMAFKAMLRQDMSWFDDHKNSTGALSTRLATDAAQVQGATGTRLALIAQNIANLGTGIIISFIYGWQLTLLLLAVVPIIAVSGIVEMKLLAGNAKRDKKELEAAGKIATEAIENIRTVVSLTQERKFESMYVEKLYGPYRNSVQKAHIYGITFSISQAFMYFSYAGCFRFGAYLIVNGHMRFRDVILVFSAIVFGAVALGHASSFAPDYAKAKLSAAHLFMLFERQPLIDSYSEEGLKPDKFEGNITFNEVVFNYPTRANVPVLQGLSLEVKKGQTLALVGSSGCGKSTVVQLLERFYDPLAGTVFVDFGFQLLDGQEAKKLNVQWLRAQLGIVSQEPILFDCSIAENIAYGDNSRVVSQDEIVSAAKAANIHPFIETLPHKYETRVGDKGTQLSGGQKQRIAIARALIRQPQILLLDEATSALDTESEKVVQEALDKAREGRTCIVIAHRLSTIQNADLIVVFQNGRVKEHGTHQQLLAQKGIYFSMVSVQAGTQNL

Compound: c1cn2cc(-c3ccc4cn[nH]c4c3)nc(Nc3ccc(N4CCOCC4)cc3)c2n1 [entospletinib]
Assay: log2 fold change, soluble protein after heating vs DMSO (PISA); higher = thermal stabilisation; K562 cells, 10 uM, 30 min; active = over 0.2 and 3.5 SD of the protein, either way, in both replicates (recomputed)
How it was run: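 Soluble protein was quantified by TMTpro 16plex LC-MS/MS after channel sums were equalised. It was obtained as the supernatant after 21,000xg for 90 min from pooled aliquots of K562 cells (2×10^6 cells/mL, 10 μM compound, 30 min) heated for 3 min across 48°C-58°C and extracted in PBS with 0.5% NP-40 at 4°C. Thermal stability values are relative to control samples and come from duplicates. They are given as log2 fold changes.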

log2 fold change, inactive:
ACBD7 (UniProt Q8N6N7) 0.065
ABCE1 (UniProt P61221) -0.015
A2M (UniProt P01023) 0.246
ACOT9 isoform 4 (UniProt Q9Y305) 0.02
ACLY isoform 2 (UniProt P53396) -0.056
ABHD14B (UniProt Q96IU4) -0.043
ABHD6 (UniProt Q9BV23) 0.212
ACTL8 (UniProt Q9H568) -0.063
ACTR3 (UniProt P61158) -0.023
AARS (UniProt P49588) -0.043
ABHD12 isoform 2 (UniProt Q8N2K0) 0.092
ABCA2 isoform 3 (UniProt Q9BZC7) 0.241
ABCB1 (UniProt P08183) -0.215
ABCD4 (UniProt O14678) 0.052
ADAM17 (UniProt P78536) -0.005
ADAM10 (UniProt O14672) -0.013
ACAT1 (UniProt P24752) -0.079
ACTN1 (UniProt P12814) -0.056
ABL1 isoform 2 (UniProt P00519) 0.002
ABCB8 (UniProt Q9NUT2) -0.009
ACAA2 (UniProt K7ER88) -0.26
ADAMTS13 (UniProt Q76LX8) 0.264
ABCE1 (UniProt H0Y990) -0.173
ACCS (UniProt Q96QU6) -0.066
ADAT3 (UniProt Q96EY9) -0.004
ABCB7 isoform 2 (UniProt O75027) -0.089
ABCB4 (UniProt P21439) 0.013
ACTG1 (UniProt I3L4N8) 0.092
ACTN1 (UniProt H9KV75) -0.333
ACOT7 isoform 7 (UniProt O00154) -0.001

For reference, part of the list above.
log2 fold change, inactive:
ACBD7 (UniProt Q8N6N7) 0.065
ABCE1 (UniProt P61221) -0.015
A2M (UniProt P01023) 0.246
ACOT9 isoform 4 (UniProt Q9Y305) 0.02
ACLY isoform 2 (UniProt P53396) -0.056
ABHD14B (UniProt Q96IU4) -0.043
ABHD6 (UniProt Q9BV23) 0.212
ACTL8 (UniProt Q9H568) -0.063
